From the supplement of paper PMC7661543
The effect of the compound repeats well; differences between the knockouts mostly do not.

Test system: BT-20
Assay: relative cell number vs DMSO control (72 h) (% of DMSO); higher = less growth inhibition (more cells)
Method: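 QMAP-Seq: a pool of 5 breast cancer cell lines (ZR-75-1, SKBR3, HCC-38, MDA-MB-231, BT-20), each carrying 12 doxycycline-inducible Cas9 sgRNA perturbations (11 knockouts plus non-targeting sgNT), was treated with compounds for 72 h at four 10-fold doses (10 nM-10 uM or 1 nM-1 uM range). Barcodes were amplified and sequenced, and cell number was interpolated from 293T spike-in standard curves. The result is expressed as % of the median of DMSO wells. Two biological replicates.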

N#Cc1ccc(COC[C@H]2O[C@@H](n3c(NCc4ccc(Cl)c(Cl)c4)nc4c(N)ncnc43)[C@H](O)[C@@H]2O)cc1
Conditions | relative cell number
sgRNA knockout: sgATF3, 10 nM | 102
sgRNA knockout: sgATF3, 100 nM | 86.2
sgRNA knockout: sgATF3, 1000 nM | 112
sgRNA knockout: sgATF3, 10000 nM | 69.6
sgRNA knockout: sgATF4, 10 nM | 104
sgRNA knockout: sgATF4, 100 nM | 114
sgRNA knockout: sgATF4, 1000 nM | 95.3
sgRNA knockout: sgATF4, 10000 nM | 69.5
sgRNA knockout: sgATF6, 10 nM | 96.3
sgRNA knockout: sgATF6, 100 nM | 101
sgRNA knockout: sgATF6, 1000 nM | 103
sgRNA knockout: sgATF6, 10000 nM | 65.3
sgRNA knockout: sgATG7, 10 nM | 111
sgRNA knockout: sgATG7, 100 nM | 104
sgRNA knockout: sgATG7, 1000 nM | 98.9
sgRNA knockout: sgATG7, 10000 nM | 70
sgRNA knockout: sgERN1, 10 nM | 98
sgRNA knockout: sgERN1, 100 nM | 105
sgRNA knockout: sgERN1, 1000 nM | 103.5
sgRNA knockout: sgERN1, 10000 nM | 80.1
sgRNA knockout: sgHSF1, 10 nM | 99.7
sgRNA knockout: sgHSF1, 100 nM | 102
sgRNA knockout: sgHSF1, 1000 nM | 108
sgRNA knockout: sgHSF1, 10000 nM | 72.6
sgRNA knockout: sgHSF2, 10 nM | 120.2
sgRNA knockout: sgHSF2, 100 nM | 105
sgRNA knockout: sgHSF2, 1000 nM | 98.8
sgRNA knockout: sgHSF2, 10000 nM | 65.2
sgRNA knockout: sgKEAP1, 10 nM | 96.9
sgRNA knockout: sgKEAP1, 100 nM | 89.9
sgRNA knockout: sgKEAP1, 1000 nM | 109
sgRNA knockout: sgKEAP1, 10000 nM | 79.5
sgRNA knockout: sgNFE2L2, 10 nM | 109
sgRNA knockout: sgNFE2L2, 100 nM | 76.18
sgRNA knockout: sgNFE2L2, 1000 nM | 110
sgRNA knockout: sgNFE2L2, 10000 nM | 69.2
sgRNA knockout: sgSLC35F2, 10 nM | 105
sgRNA knockout: sgSLC35F2, 100 nM | 104
sgRNA knockout: sgSLC35F2, 1000 nM | 106
sgRNA knockout: sgSLC35F2, 10000 nM | 66
sgRNA knockout: sgXBP1, 10 nM | 97.4
sgRNA knockout: sgXBP1, 100 nM | 96.176
sgRNA knockout: sgXBP1, 1000 nM | 105
sgRNA knockout: sgXBP1, 10000 nM | 75.7

COCC[n+]1c2c(n(Cc3cnccn3)c1C)C(=O)c1ccccc1C2=O [YM155]
Conditions | relative cell number
sgRNA knockout: sgATF3, 1 nM | 91.6
sgRNA knockout: sgATF3, 10 nM | 52.4
sgRNA knockout: sgATF3, 100 nM | 5.27
sgRNA knockout: sgATF3, 1000 nM | 6.39
sgRNA knockout: sgATF4, 1 nM | 91.1
sgRNA knockout: sgATF4, 10 nM | 46.6
sgRNA knockout: sgATF4, 100 nM | 6.44
sgRNA knockout: sgATF4, 1000 nM | 4.63
sgRNA knockout: sgATF6, 1 nM | 96
sgRNA knockout: sgATF6, 10 nM | 47.7
sgRNA knockout: sgATF6, 100 nM | 8.25
sgRNA knockout: sgATF6, 1000 nM | 7.61
sgRNA knockout: sgATG7, 1 nM | 97.7
sgRNA knockout: sgATG7, 10 nM | 44
sgRNA knockout: sgATG7, 100 nM | 7.25
sgRNA knockout: sgATG7, 1000 nM | 6.09
sgRNA knockout: sgERN1, 1 nM | 93.3
sgRNA knockout: sgERN1, 10 nM | 41.6
sgRNA knockout: sgERN1, 100 nM | 7.08
sgRNA knockout: sgERN1, 1000 nM | 7.74
sgRNA knockout: sgHSF1, 1 nM | 87.9
sgRNA knockout: sgHSF1, 10 nM | 43.1
sgRNA knockout: sgHSF1, 100 nM | 4.67
sgRNA knockout: sgHSF1, 1000 nM | 4.37
sgRNA knockout: sgHSF2, 1 nM | 109
sgRNA knockout: sgHSF2, 10 nM | 53.3
sgRNA knockout: sgHSF2, 100 nM | 6.76
sgRNA knockout: sgHSF2, 1000 nM | 4.51
sgRNA knockout: sgKEAP1, 1 nM | 89.4
sgRNA knockout: sgKEAP1, 10 nM | 59.9
sgRNA knockout: sgKEAP1, 100 nM | 8.56
sgRNA knockout: sgKEAP1, 1000 nM | 5.72
sgRNA knockout: sgNFE2L2, 1 nM | 90.7
sgRNA knockout: sgNFE2L2, 10 nM | 47.8
sgRNA knockout: sgNFE2L2, 100 nM | 4.96
sgRNA knockout: sgNFE2L2, 1000 nM | 4.15
sgRNA knockout: sgSLC35F2, 1 nM | 94.2
sgRNA knockout: sgSLC35F2, 10 nM | 85
sgRNA knockout: sgSLC35F2, 100 nM | 26
sgRNA knockout: sgSLC35F2, 1000 nM | 5.25
sgRNA knockout: sgXBP1, 1 nM | 95.9
sgRNA knockout: sgXBP1, 10 nM | 49.6
sgRNA knockout: sgXBP1, 100 nM | 4.85
sgRNA knockout: sgXBP1, 1000 nM | 7.3
